Data as given in PubChem BioAssay AID488837 (National Center for Advancing Translational Sciences (NCATS), 2010).
Among all 330,000 compounds or so, about 20 (0.006%) were called active. This list was built around the results that the source calls inconclusive (neither active nor inactive); the mix of calls is not that of the screen. The call rests on the fitted dose curve; in most records, active means well fitted inhibition curve with a large enough effect; inconclusive means small, poorly fitted or top-dose-only effect, or effect the other way; inactive means flat fitted curve, though single readings scatter. A potency beside an inconclusive call is a rough fit, not a confirmed value.

Chains of the proteins cited; added tags and fusions are not shown. Lines headed by an entry give the natural chain unless they say otherwise; changes in a name come on top.
UniProt O00167: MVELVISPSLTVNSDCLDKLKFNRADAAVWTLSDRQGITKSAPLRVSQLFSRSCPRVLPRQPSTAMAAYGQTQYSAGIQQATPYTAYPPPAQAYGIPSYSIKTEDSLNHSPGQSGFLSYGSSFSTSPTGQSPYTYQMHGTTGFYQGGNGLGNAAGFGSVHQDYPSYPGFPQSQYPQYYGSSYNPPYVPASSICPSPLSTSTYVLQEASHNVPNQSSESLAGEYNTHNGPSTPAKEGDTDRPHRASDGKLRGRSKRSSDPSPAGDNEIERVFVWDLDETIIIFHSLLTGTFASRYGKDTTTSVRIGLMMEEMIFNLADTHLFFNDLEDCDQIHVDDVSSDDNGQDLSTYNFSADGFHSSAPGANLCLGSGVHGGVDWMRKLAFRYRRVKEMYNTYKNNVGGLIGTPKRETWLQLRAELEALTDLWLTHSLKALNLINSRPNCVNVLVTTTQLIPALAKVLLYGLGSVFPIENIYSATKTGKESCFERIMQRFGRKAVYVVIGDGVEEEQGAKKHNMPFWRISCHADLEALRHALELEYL

biological target: Protein phosphatase EYA2 (Homo sapiens) (UniProt O00167); experiment: qHTS Assay for Inhibitors of the Phosphatase Activity of Eya2; conditions: recombinant Eya2, OMFP fluorescence dephosphorylation (OMFP is methylfluorescein phosphate); activity, negative = inhibition: at 76.9 µM (top of the series) unless noted
Procedure, shortened: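 Eya2 protein (added as 0.2 uM solution) was preincubated with compound for 10 min at ambient temperature in 50 mM HEPES pH 7.5, 50 mM NaCl, 5 uM MgCl2, 0.05% BSA, 1 mM DTT. OMFP (added at 50 uM) then reacted 10 min; fluorescence read at 485/525 nm.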
On the % scale 0 is the no-effect control and ±100 the full control effect; potency means the concentration at half of the fitted maximal effect.

SMILES	Potency	activity, negative = inhibition
COc1ccc(NC(=O)Cc2ccc(C)c(C)c2)cc1Cl	inconclusive: 126 µM [inhibitor, partial curve]	–
COc1ccccc1N=Nc1c(C)n[nH]c1C	inconclusive: 200 µM [inhibitor, partial curve, poor fit]	–
Cc1cccc(OCC(O)CN2CCN(S(=O)(=O)c3ccc(C)cc3C)CC2)c1 (stereo unspecified)	inconclusive: 25.1 µM [inhibitor, single point]	–
CC(C)NCC(O)Cn1c2c(c3ccccc31)CCc1c-2cnn1-c1ccccc1 (stereo unspecified)	inactive	–
O=C(N/N=C/c1ccc([N+](=O)[O-])o1)c1ccncc1	inconclusive: 100 µM [inhibitor, single point]	–
O=C(O)/C=C/C(=O)N1Cc2cc3ccccc3nc2C1	inconclusive: 79.4 µM [inhibitor, single point]	–
CCOC(=O)C1CCN(c2ccc(-c3cccs3)nn2)CC1	inactive	–
CC(C)c1ncc(C(O)c2ccccc2)n1C (stereo unspecified)	inconclusive: 158 µM [inhibitor, single point]	–
CCOC(=O)C(C(=O)Nc1cccc(C)n1)C1CCCCC1 (stereo unspecified)	inactive	–
FC(F)(F)Oc1ccccc1-c1nnc(-c2cccc(C(F)(F)F)c2)o1	inconclusive: 200 µM [inhibitor, partial curve, poor fit]	–
CN(CCC#N)C(=O)COC(=O)/C=C/c1ccc2c(c1)OCO2	inconclusive: 15.8 µM [inhibitor, single point]	–
CN(C)N1C(N)=C(C#N)C(c2cccc([N+](=O)[O-])c2)C2=C1CC(C)(C)CC2=O (stereo unspecified)	inconclusive: 89.1 µM [inhibitor, single point]	–
Cc1c(C)c2ccc(OCC(=O)N3CC[C@@]4(O)CCCC[C@H]4C3)cc2oc1=O	inconclusive: 22.4 µM [inhibitor, single point]	–
CCN1C(=NCCOC)N[C@@H](c2ccccc2)[C@H](C(=O)OC)[C@H]1C	inconclusive: 22.4 µM [inhibitor, partial curve]	–
Cc1ccccc1OCCC(=O)Nc1ccccc1C(=O)NC1CC1	inconclusive: 14.1 µM [inhibitor, single point]	–
O=C(NCCN1CCOCC1)c1ccc(Cl)cc1[N+](=O)[O-]	inconclusive: 22.4 µM [inhibitor, single point]	–
O=C(COC(=O)/C=C/c1ccc([N+](=O)[O-])cc1)NCc1ccc2c(c1)OCO2	inconclusive: 100 µM [inhibitor, single point]	–
CC1CCCCN1C(=O)CCn1c(=S)oc2ccccc21 (stereo unspecified)	inconclusive: 56.2 µM [inhibitor, single point]	–
COc1ccc(CC(=O)OCC(=O)NCc2ccc(Cl)cc2)cc1	inconclusive: 355 µM [inhibitor, single point]	–
Cc1c(C#N)c(NC(=O)CCl)n(Cc2ccccc2)c1C	inconclusive: 2000 µM [inhibitor, partial curve, poor fit]	–
CCN(CC)CCCNC(=O)C1CCN(c2ncnc3c2sc2cccc(F)c23)CC1	inconclusive: 126 µM [inhibitor, partial curve]	–
Oc1ccc(N=Cc2ccc(O)c(O)c2)cc1	inactive	–
O=C1C=C(NCC2CCCO2)C2(CCCCC2)O1 (stereo unspecified)	inconclusive: 15.8 µM [inhibitor, single point]	–
COc1cc(CN2c3ccccc3C(=O)CS2(=O)=O)cc(OC)c1	inactive	–

SMILES	Potency	activity, negative = inhibition
Cc1cc2cc(CNC(=O)C(C)Oc3ccccc3)ccc2n1C (stereo unspecified)	inconclusive: 25.1 µM [inhibitor, single point]	–
CCCCCc1c2c(cc(O)c1C(=O)O)OC(=O)c1c(cc(OC)cc1C(=O)CCCC)O2	inactive	–
Cc1nc2ccccc2c(=O)n1NC(=O)c1ccc(Cl)cc1	inconclusive: 25.1 µM [inhibitor, single point]	–
N#C/C(=C\c1coc2ccc(O)cc2c1=O)C(=O)Nc1nc2ccccc2s1	inconclusive: 79.4 µM [activator, partial curve]	–
CCCN(CCC)S(=O)(=O)c1ccc(C(=O)N2CC3CCC(CC3)C2)cc1	inconclusive: 100 µM [inhibitor, single point]	–
OC1=C(O)c2nc3ccccc3nc21	inactive	–
Cn1c(=O)c(C(=O)Nc2ncccc2O)c(O)c2ccccc21	active: 56.2 µM	–
O=c1[nH]nc(N/N=C/c2ccccc2OC(F)F)c(=O)[nH]1	inconclusive: 79.4 µM [inhibitor, partial curve, poor fit]	–
CCOc1cc(/C=C(\C#N)C(=O)Nc2cccc(C(=O)O)c2)ccc1OCc1ccccc1Cl	inactive	–
Cc1nn(C)c(C)c1NC(=O)Nc1ccc(Cl)c(Cl)c1	inconclusive: 15.8 µM [inhibitor, partial curve, poor fit]	–
Cc1ccccc1CN1CCN(CC2CC2)CC1CCO (stereo unspecified)	inconclusive: 28.2 µM [inhibitor, single point]	–
COc1ccc(N2CCN(CCCNC(=O)Cn3c(=O)c4cccn4c4ccccc43)CC2)cc1	inactive	–
Fc1cccc(CNc2ncnc3cc(Cl)ccc23)c1F	inconclusive: 158 µM [inhibitor, partial curve, poor fit]	–
Cc1ccccc1CN(C)CCc1ccccn1	inconclusive: 25.1 µM [inhibitor, single point]	–
COC(=O)c1sc(S(=O)(=O)N2CC(C)OC(C)C2)c(C(=O)OC)c1C (stereo unspecified)	inconclusive: 126 µM [inhibitor, single point]	–
Cc1nc(S(=O)(=O)NC2CCCCC2)c(C#N)c(C)c1Cl	inconclusive: 100 µM [inhibitor, partial curve, poor fit]	–
O=c1c2ccccc2cnn1Cc1n[nH]c(=S)n1-c1ccccc1F	–	inconclusive: -35.2% [inhibitor]
O=C(O)c1nc2nc(Cl)c(Cl)nc2[nH]1	inconclusive: 31.6 µM [inhibitor, partial curve, poor fit]	–
CCOC(=O)Nc1cc(C)c(Cl)cc1OC	inconclusive: 79.4 µM [inhibitor, single point]	–
COc1cccc(/C=N/Nc2nn3cnnc3c3ccccc23)c1O	inactive	–
CCc1c(C)nc(SCC(N)=O)c(C#N)c1C	inactive	–
COc1ccc(N(CC(=O)Nc2cccc(C)c2C)S(=O)(=O)c2c(C)n[nH]c2C)cc1	inactive	–
CC(C)Cc1ccc(CN2CCC(n3nccc3NC(=O)C3CCCC3)CC2)cc1	inconclusive: 28.2 µM [inhibitor, partial curve, poor fit]	–
Cc1c(NC(=O)COC(=O)C(c2ccc(Cl)cc2)C(C)C)c(=O)n(-c2ccccc2)n1C (stereo unspecified)	inconclusive: 14.1 µM [inhibitor, single point]	–

Quoted at random: six entries already listed.
SMILES	Potency	activity, negative = inhibition
OC1=C(O)c2nc3ccccc3nc21	inactive	–
O=c1[nH]nc(N/N=C/c2ccccc2OC(F)F)c(=O)[nH]1	inconclusive: 79.4 µM [inhibitor, partial curve, poor fit]	–
O=C(O)c1nc2nc(Cl)c(Cl)nc2[nH]1	inconclusive: 31.6 µM [inhibitor, partial curve, poor fit]	–
Cc1ccccc1CN(C)CCc1ccccn1	inconclusive: 25.1 µM [inhibitor, single point]	–
COC(=O)c1sc(S(=O)(=O)N2CC(C)OC(C)C2)c(C(=O)OC)c1C (stereo unspecified)	inconclusive: 126 µM [inhibitor, single point]	–
N#C/C(=C\c1coc2ccc(O)cc2c1=O)C(=O)Nc1nc2ccccc2s1	inconclusive: 79.4 µM [activator, partial curve]	–

Later entries

SMILES	Potency	activity, negative = inhibition
Cc1ccc(S(=O)(=O)N2CN(Cc3ccco3)c3nc4ccccc4nc32)cc1	inactive	–
COc1ccc(NC(=S)N(CCN2CCCCC2)Cc2ccco2)cc1	inconclusive: 28.2 µM [inhibitor, single point]	–
Cc1noc(C)c1CSCC(=O)N(C)CC(=O)Nc1ccc(F)c(F)c1F	inconclusive: 70.8 µM [inhibitor, single point]	–
CCn1c(=O)n(CC)c2cc([N+](=O)[O-])ccc21	inconclusive: 35.5 µM [inhibitor, single point]	–
C=C(C)COc1ccc2c(CC)cc(=O)oc2c1	inactive	–
O=C(Nc1nc(-c2ccncc2)cs1)c1ccco1	inactive	–
O=P(CCCCCCCCCP(=O)(c1ccccc1)c1ccccc1)(c1ccccc1)c1ccccc1	inconclusive: 63.1 µM [inhibitor, single point]	–
Cc1cc(=O)c2cc(Cl)ccc2[nH]1	inconclusive: 141 µM [inhibitor, single point]	–
Cc1ccc(-c2nnc(-c3ccc4c(c3)OCO4)o2)cc1	inconclusive: 22.4 µM [inhibitor, single point]	–
CC1Sc2ccc(S(=O)(=O)CCC(=O)N3CCN(c4ccccc4)CC3)cc2NC1=O (stereo unspecified)	inconclusive: 100 µM [inhibitor, single point]	–
CCCCCNC(=O)c1cccc(S(=O)(=O)N2CC3(C)CC2CC(C)(C)C3)c1 (stereo unspecified)	inconclusive: 63.1 µM [inhibitor, partial curve]	–
Cc1ccc(-n2nc3ccc(NC(=O)/C=C/c4ccco4)cc3n2)cc1	inactive	–
O=C(CCc1c[nH]c2ccccc12)NCC1COc2ccccc2O1 (stereo unspecified)	inconclusive: 25.1 µM [inhibitor, single point]	–
COc1cc(Br)c(CN2C(=O)NC3(CCCCCC3)C2=O)cc1OC	inconclusive: 22.4 µM [inhibitor, single point]	–
COc1ccc(/C(C)=N/Nc2nc3ccccc3nc2C)cc1	inconclusive: 100 µM [inhibitor, single point]	–
CCOC(=O)C(C)Oc1ccc(OCc2ccccc2)cc1 (stereo unspecified)	inconclusive: 100 µM [inhibitor, single point]	–
Nc1ccc(/C=C/c2ccc3ncccc3c2)cc1	inactive	–
COc1cc2c(C#N)c(N3CCCCC3)nc(N)c2c(N)n1	inactive	–
CN(CC(=O)N1CCN(Cc2ccccc2)CC1)S(=O)(=O)c1cccc2nsnc12	inconclusive: 100 µM [inhibitor, single point]	–
NNC(=O)c1cc2ccccc2cc1NS(=O)(=O)c1ccccc1	inconclusive: 89.1 µM [inhibitor, single point]	–
O=C(O)c1ccc2c(c1)CCCN2	inactive	–
C=CCSc1ncc(CO)n1Cc1ccccc1	inconclusive: 158 µM [inhibitor, partial curve, poor fit]	–
CCC(=O)c1ccc(NC(C)=O)cc1O	inconclusive: 89.1 µM [inhibitor, single point]	–
